Assay results published in patent publication US20170138946A1, “BIOMARKERS FOR RESPONSE TO EZH2 INHIBITORS” (Memorial Sloan-Kettering Cancer Center, priority 2014, published 2017).
These are yes or no findings as the source states them, for the method shown. Some entries that bind do so weakly or less than the wild type.

Chains of the proteins cited; added tags and fusions are not shown.
UniProt Q969R5: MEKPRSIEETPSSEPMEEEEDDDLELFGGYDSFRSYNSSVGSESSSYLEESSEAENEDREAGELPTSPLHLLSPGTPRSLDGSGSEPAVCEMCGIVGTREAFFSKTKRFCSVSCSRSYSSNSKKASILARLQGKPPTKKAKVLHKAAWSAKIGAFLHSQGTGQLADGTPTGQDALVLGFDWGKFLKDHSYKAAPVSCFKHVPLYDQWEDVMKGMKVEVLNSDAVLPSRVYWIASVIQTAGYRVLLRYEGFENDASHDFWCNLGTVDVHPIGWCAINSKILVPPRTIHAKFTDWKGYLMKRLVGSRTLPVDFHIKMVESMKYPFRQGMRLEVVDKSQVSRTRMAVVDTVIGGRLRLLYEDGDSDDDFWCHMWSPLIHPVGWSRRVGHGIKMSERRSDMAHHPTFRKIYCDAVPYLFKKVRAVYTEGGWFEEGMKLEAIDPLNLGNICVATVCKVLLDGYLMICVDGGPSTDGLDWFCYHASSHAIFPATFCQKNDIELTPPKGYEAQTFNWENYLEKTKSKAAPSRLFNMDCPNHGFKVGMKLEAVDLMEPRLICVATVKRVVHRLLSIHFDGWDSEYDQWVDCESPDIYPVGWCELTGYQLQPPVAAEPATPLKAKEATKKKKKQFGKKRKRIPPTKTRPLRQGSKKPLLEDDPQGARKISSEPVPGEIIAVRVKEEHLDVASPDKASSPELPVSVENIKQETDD
UniProt Q92560: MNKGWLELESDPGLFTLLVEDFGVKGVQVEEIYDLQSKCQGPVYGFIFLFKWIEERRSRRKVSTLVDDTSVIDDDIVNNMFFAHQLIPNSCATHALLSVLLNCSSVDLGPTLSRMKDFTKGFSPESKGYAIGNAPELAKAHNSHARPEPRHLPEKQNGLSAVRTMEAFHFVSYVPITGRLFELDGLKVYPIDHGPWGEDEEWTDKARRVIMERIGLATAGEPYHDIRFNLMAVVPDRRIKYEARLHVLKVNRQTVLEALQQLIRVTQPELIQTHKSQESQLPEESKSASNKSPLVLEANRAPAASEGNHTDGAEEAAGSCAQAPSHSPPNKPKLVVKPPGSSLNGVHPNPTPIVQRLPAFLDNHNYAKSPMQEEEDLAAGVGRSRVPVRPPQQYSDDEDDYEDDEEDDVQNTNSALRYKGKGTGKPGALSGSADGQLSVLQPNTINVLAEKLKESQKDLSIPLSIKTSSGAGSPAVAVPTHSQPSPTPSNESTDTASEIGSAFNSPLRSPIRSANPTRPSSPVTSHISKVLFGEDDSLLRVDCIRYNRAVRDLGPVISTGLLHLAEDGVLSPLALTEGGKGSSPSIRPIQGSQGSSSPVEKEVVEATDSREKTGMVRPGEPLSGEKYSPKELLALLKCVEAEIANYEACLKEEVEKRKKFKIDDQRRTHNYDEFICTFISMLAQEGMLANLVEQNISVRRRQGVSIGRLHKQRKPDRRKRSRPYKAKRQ

Target: L3MBTL2 (human) (UniProt Q969R5)
Assay: reciprocal immunoprecipitation and Western blot in 293T cells, DNA digested

BRCA1 associated protein-1 (BAP1) (from UniProt Q92560 1-729) (enzyme)
binding: binds
